Inconclusive results are not listed.
Test system: MX-1 breast xenograft, nude mice, tumor weight T/C
Experiment: NCI In Vivo Anticancer Drug Screen. Data for tumor model Human Mammary Carcinoma MX-1 Xenograft (intrarenal inoculation) in NU/NU Swiss (nude) mice
Conditions: endpoint: mean tumor weight change, schedule: Q01DX010 (sc), vehicle: Klucel (hydroxypropylcellulose) (HPC), higher = larger tumour
Description: The antitumor activity of compounds was measured in mice bearing transplantable tumors. Survival or tumor size were measured and the results are expressed as the measurement made in the treated group (T) divided by the measurement made in the vehicle treated control group (C). The tumor model used in this assay is Human Mammary Carcinoma MX-1 Xenograft (intrarenal inoculation) in NU/NU Swiss (nude) mice

## COc1cc2c(c(OC)c1OC)-c1ccc(OC)c(=O)cc1[C@@H](N)CC2
dose: 0.63 mg/kg/injection
  T/C: 120 % of control
dose: 1.25 mg/kg/injection
  T/C: 65 % of control
dose: 2.5 mg/kg/injection
  T/C: 48 % of control
dose: 5.0 mg/kg/injection
  T/C: 60 % of control

— PubChem BioAssay AID296 (DTP/NCI, 2004)
